The target in this test is T1, MBP-TtProDH variant EE (MBP-TtProDH with Phe10 and Leu12 replaced by Glu) (Thermus thermophilus) (UniProt Q72IB8).
T1 sequence: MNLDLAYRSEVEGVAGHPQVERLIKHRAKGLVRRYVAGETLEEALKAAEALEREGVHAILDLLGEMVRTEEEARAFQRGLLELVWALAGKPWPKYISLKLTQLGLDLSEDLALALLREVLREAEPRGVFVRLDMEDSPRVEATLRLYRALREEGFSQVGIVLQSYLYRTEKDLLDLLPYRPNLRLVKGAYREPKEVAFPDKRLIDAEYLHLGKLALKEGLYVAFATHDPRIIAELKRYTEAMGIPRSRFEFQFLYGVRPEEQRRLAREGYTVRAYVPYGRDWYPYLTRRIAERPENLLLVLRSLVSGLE
Briefly: SEC; 20 µM EE and 20 µM ΔABC mixed in 50 mM sodium phosphate pH 7.4, incubated at room temperature overnight, then Superdex 200 gel filtration; SDS-PAGE of the fractions; both purified. In general terms: Size exclusion chromatography separates by hydrodynamic size, large species first.

Results are given in words; binding and its absence hold for the method and conditions named. Where a sequence is shown, tags or fusion partners need not be part of it.

B1: MBP-TtProDH ΔABC (MBP-TtProDH lacking helices αA, αB and αC) (domain or fragment, Thermus thermophilus, UniProt Q72IB8 38-287, looked up)
chain: GETLEEALKAAEALEREGVHAILDLLGEMVRTEEEARAFQRGLLELVWALAGKPWPKYISLKLTQLGLDLSEDLALALLREVLREAEPRGVFVRLDMEDSPRVEATLRLYRALREEGFSQVGIVLQSYLYRTEKDLLDLLPYRPNLRLVKGAYREPKEVAFPDKRLIDAEYLHLGKLALKEGLYVAFATHDPRIIAELKRYTEAMGIPRSRFEFQFLYGVRPEEQRRLAREGYTVRAYVPYGRDWYPYLT
notes: Proline dehydrogenase (TtProDH), Thermus thermophilus, lacking the whole N-terminal arm; PDB 5M42)'; the construct encodes up to residue 309, but the observed species is C-terminally truncated, cleaved before Arg288 (residues 288-309 removed); The difference of the predicted masses of ΔAB and ΔABC (75.5 against 74.4 kDa) fits a start at G38; not shown: MBP, N-terminal, kept
With B1, the binding result was “no binding (tested: 20 µM each)”.

The values above are taken from article PMC6017737, “Functional Impact of the N-terminal Arm of Proline Dehydrogenase from Thermus thermophilus” (Molecules : A Journal of Synthetic Chemistry and Natural …, 2018).
